Laboratory results as given in paper doi:10.1101/2023.01.13.523841.
Where two headings read alike, the source gives them in different places. Results are given in words; binding and its absence hold for the method and conditions named. For some of these results: Binding seen in cells or lysates may run through a third protein. Some binding calls cover weakened binding; strength is not graded here. Tags and fused reporters may be left off the sequences shown.

The chains behind the UniProt entries cited, without tags or fusion partners.
UniProt O22467: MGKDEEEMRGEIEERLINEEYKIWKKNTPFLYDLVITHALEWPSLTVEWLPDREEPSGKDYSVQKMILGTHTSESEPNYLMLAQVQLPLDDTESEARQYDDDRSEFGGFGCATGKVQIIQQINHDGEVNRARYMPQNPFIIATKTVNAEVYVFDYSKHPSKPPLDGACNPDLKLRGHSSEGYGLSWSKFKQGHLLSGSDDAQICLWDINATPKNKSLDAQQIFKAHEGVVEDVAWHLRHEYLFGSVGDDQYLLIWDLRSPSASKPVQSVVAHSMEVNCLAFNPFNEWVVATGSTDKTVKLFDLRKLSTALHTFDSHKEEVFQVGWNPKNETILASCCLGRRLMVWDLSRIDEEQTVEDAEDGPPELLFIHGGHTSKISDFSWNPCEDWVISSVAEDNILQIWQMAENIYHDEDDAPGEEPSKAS

Tests used:
[1] = biological target: T1, ALFIN LIKE 3 (AL3), yeast two-hybrid fusion in pBridge or pGADT7 (Arabidopsis thaliana) (UniProt Q9M2B4); assay: two-hybrid
T1 sequence: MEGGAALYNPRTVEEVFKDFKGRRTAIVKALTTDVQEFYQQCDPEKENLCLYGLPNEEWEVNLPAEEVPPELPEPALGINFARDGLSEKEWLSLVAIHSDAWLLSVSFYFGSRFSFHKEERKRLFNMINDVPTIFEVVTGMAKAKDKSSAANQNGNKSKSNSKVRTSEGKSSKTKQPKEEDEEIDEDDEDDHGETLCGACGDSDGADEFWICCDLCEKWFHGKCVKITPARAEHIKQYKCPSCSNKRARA

[2] = biological target: T1, ALFIN LIKE 3 (AL3), yeast two-hybrid fusion in pBridge or pGADT7 (Arabidopsis thaliana); assay: two-hybrid; remark: listed apart in the source
[3] = biological target: ALFIN LIKE 3 (AL3), BiFC fusion in pUC-SPYNE (nYFP-X) (Arabidopsis thaliana) (UniProt Q9M2B4); assay: split reporter

Molecule: MSI1, yeast two-hybrid fusion (from UniProt O22467 1-424)
- binding [1]: no binding

B1: LIKE HETEROCHROMATIN 1 (LHP1), yeast two-hybrid fusion (protein, UniProt Q946J8 1-445)
chain: MKGASGAVKKKPQVLNEAGEAETAVETVGESRKISGDGGFGSDDGGGGGGGGSGESILREIGDDRPTEDGDEEEEEDEDEDDGGDEEDEEGEGEGGQEERPKLDEGFYEIEAIRRKRVRKGKVQYLIKWRGWPETANTWEPLENLQSIADVIDAFEGSLKPGKPGRKRKRKYAGPHSQMKKKQRLTSTSHDATEKSDSSTSLNNSSLPDIPDPLDLSGSSLLNRDVEAKNAYVSNQVEANSGSVGMARQVRLIDNEKEYDPTLNELRGPVNNSNGAGCSQGGGIGSEGDNVRPNGLLKVYPKELDKNSRFIGAKRRKSGSVKRFKQDGSTSNNHTAPTDQNLTPDLTTLDSFGRIARMGNEYPGVMENCNLSQKTKIEELDITKILKPMSFTASVSDNVQEVLVTFLALRSDGKEALVDNRFLKAHNPHLLIEFYEQHLKYNRTP
- binding [2]: binds

B2: LIKE HETEROCHROMATIN 1 (LHP1), BiFC fusion in pUC-SPYCE (cYFP-X) (protein, UniProt Q946J8 1-445)
chain: B1 chain
- binding [3]: binds

B3: CLF, yeast two-hybrid fusion (protein, UniProt P93831 1-902)
chain: MASEASPSSSATRSEPPKDSPAEERGPASKEVSEVIESLKKKLAADRCISIKKRIDENKKNLFAITQSFMRSSMERGGSCKDGSDLLVKRQRDSPGMKSGIDESNNNRYVEDGPASSGMVQGSSVPVKISLRPIKMPDIKRLSPYTTWVFLDRNQRMTEDQSVVGRRRIYYDQTGGEALICSDSEEEAIDDEEEKRDFLEPEDYIIRMTLEQLGLSDSVLAELASFLSRSTSEIKARHGVLMKEKEVSESGDNQAESSLLNKDMEGALDSFDNLFCRRCLVFDCRLHGCSQDLIFPAEKPAPWCPPVDENLTCGANCYKTLLKSGRFPGYGTIEGKTGTSSDGAGTKTTPTKFSSKLNGRKPKTFPSESASSNEKCALETSDSENGLQQDTNSDKVSSSPKVKGSGRRVGRKRNKNRVAERVPRKTQKRQKKTEASDSDSIASGSCSPSDAKHKDNEDATSSSQKHVKSGNSGKSRKNGTPAEVSNNSVKDDVPVCQSNEVASELDAPGSDESLRKEEFMGETVSRGRLATNKLWRPLEKSLFDKGVEIFGMNSCLIARNLLSGFKSCWEVFQYMTCSENKASFFGGDGLNPDGSSKFDINGNMVNNQVRRRSRFLRRRGKVRRLKYTWKSAAYHSIRKRITEKKDQPCRQFNPCNCKIACGKECPCLLNGTCCEKYCGCPKSCKNRFRGCHCAKSQCRSRQCPCFAADRECDPDVCRNCWVIGGDGSLGVPSQRGDNYECRNMKLLLKQQQRVLLGISDVSGWGAFLKNSVSKHEYLGEYTGELISHKEADKRGKIYDRENCSFLFNLNDQFVLDAYRKGDKLKFANHSPEPNCYAKVIMVAGDHRVGIFAKERILAGEELFYDYRYEPDRAPAWAKKPEAPGSKKDENVTPSVGRPKKLA
- binding [2]: no binding
